We go through one compound from paper PMC8765293, “Inhibitor-Resistant Mutants Give Important Insights into Candida albicans ABC Transporter Cdr1 Substrate Specificity and Help Elucidate Efflux Pump Inhibition” (Antimicrobial Agents and Chemotherapy, 2022).

Amino acid sequences for entries named in this document (tags omitted). A change or cut given only in a name is not applied to a line headed by its entry.
UniProt Q5ANA3: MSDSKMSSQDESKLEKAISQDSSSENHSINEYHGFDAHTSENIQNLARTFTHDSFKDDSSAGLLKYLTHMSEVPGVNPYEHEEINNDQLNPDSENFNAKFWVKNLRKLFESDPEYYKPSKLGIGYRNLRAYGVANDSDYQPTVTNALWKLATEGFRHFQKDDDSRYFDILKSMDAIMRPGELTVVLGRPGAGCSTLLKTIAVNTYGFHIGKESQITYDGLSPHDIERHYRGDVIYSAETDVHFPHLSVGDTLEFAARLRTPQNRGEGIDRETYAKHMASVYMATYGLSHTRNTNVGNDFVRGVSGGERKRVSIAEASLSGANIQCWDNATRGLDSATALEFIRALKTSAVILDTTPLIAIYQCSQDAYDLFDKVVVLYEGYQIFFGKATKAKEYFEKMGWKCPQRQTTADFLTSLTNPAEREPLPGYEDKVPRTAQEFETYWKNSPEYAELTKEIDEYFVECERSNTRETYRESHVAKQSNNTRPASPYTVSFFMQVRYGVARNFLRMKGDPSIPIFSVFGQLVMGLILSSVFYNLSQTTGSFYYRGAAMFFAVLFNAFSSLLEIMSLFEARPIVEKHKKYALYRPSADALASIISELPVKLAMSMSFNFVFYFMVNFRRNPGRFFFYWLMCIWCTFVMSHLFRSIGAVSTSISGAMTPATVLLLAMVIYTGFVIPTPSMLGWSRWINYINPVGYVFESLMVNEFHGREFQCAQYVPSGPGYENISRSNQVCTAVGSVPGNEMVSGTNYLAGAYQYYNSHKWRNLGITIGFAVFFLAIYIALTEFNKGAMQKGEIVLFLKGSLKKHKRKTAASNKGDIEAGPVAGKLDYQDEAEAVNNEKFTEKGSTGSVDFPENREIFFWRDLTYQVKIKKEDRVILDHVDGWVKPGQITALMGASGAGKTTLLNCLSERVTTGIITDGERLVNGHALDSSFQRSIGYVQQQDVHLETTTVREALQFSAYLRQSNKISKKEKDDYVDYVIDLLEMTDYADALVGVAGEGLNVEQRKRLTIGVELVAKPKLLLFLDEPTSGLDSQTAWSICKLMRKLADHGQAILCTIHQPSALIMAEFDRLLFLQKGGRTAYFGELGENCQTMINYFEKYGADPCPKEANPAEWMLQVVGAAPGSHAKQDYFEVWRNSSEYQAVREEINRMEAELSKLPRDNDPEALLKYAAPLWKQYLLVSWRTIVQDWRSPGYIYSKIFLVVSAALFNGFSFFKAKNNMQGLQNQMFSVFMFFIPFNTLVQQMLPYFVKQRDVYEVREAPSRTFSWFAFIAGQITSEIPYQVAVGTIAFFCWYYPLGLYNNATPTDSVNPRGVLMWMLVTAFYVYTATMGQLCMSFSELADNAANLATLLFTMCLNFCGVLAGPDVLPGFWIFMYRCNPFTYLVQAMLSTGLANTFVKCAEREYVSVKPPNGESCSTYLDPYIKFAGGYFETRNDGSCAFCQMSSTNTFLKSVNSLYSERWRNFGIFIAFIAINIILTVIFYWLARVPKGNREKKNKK

The assay has as its target wt Cdr1 ATPase activity (Candida albicans, UniProt Q5ANA3). The experiment in a line: biochemical.

As a reminder, the IC50 is the point on the concentration scale where inhibition reaches its midpoint. The low end stands for greater potency in that assay, the high end for weaker potency in that assay. `Clc1ccccc1C(c1ccccc1)(c1ccccc1)n1ccnc1` [CLT, clotrimazole]: the IC50 was 30 µM.
